## Library screen at single concentrations

Chains of the proteins cited; added tags and fusions are not shown. Residues count along the entry.
UniProt Q4DA54, 1-478: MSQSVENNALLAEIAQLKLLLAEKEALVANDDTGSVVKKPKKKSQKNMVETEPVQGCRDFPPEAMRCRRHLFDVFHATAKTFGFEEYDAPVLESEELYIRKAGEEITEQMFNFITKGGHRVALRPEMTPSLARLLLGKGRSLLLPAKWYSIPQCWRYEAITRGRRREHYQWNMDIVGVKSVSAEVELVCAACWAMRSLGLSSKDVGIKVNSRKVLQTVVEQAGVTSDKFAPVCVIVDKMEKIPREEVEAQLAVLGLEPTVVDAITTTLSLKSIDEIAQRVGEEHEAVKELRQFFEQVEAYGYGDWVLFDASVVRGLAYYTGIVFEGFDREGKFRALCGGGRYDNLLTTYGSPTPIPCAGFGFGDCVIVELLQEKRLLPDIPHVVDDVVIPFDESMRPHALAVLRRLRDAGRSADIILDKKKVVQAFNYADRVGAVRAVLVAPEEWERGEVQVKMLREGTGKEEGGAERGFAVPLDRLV
UniProt P9WNZ1, whole entry: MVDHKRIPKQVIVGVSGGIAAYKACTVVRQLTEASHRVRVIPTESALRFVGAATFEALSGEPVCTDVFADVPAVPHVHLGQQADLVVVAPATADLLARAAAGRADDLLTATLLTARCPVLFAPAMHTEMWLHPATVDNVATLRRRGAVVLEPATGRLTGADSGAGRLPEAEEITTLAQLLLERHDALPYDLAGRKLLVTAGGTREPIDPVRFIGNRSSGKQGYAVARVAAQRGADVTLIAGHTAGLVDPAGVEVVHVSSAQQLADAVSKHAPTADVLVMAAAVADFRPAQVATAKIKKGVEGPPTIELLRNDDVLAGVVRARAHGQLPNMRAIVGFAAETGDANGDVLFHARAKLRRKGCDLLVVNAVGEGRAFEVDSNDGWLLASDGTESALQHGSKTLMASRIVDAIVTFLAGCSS

The values are deposited in ChEMBL (CHEMBL3988442, “University of Dundee, Small-Polar-MMV Screening Library” (2021)).

TcHisRS: 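Histidine-tRNA ligase, Trypanosoma cruzi CL Brener (UniProt Q4DA54). Enzyme assay of histidyl-tRNA synthetase; the read-out is not stated. Compounds at 30 µM. The record gives no direction; compounds that gave an IC50 in retests scored well above the rest, so higher reads as stronger inhibition. About 69,000 compounds were tested under these conditions; 0.045% (about 31) showed 50% or more at least once.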
CoaBC: 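Coenzyme A biosynthesis protein CoaBC, Mycobacterium tuberculosis (UniProt P9WNZ1). Enzyme assay of CoaBC with a phosphate dye (Biomol Green) read at 650 nm. Concentration: 30 µM. Direction is inferred from only a few compounds that gave an IC50; most scored high, so higher reads as stronger inhibition. Most strong results did not repeat in a second test. About 67,000 compounds were tested under these conditions; 0.06% (about 40) showed 50% or more at least once.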

The filed quantity is “Percent Effect” (%). How 0% and 100% were set is not recorded. Most values in the screen are low, and negative values occur. Compounds were drawn at random from those tested, without regard to their results.

With c1cc(COC[C@@]23CCC[C@@H]2CN(C2CCOCC2)C3)ccn1 the screen gave TcHisRS: 13.97%; CoaBC: 6.424%. CC[C@@]1(O)CCN(C(=O)CN(C)Cc2ccc(F)cc2)C[C@H]1O gave TcHisRS: -9.662%; CoaBC: -1.366%. COc1cccc(CCNCc2c(C)nn(C)c2N(C)C)c1 read TcHisRS: 4.183%; CoaBC: -2.394%. Result for CC(C)(C)c1nc(CN2CCCC2c2nnc3ccccn23)no1 (centres unmarked) was TcHisRS: 11.44%; CoaBC: 3.137%. COc1ccc2c(ccn2CC(=O)N2CCCC2c2cnn(C)c2)c1 (centres unmarked) gave TcHisRS: 9.948%; CoaBC: 6.21%. With Cc1ccc(CN(CCN(C)C)C(=O)Cc2cn3ccccc3n2)o1 the screen gave TcHisRS: 6.077%; CoaBC: -36.41%. With Cc1ncc(CN(C)C(=O)Nc2cccc(CN3CCOC3=O)c2)s1 the screen gave TcHisRS: 3.896%. For COCC1CN(c2ccc(Cl)cc2C#N)CCO1 (centres unmarked) the result was TcHisRS: 1.97%; CoaBC: 6.731%.

For Fc1cnc(N2CCN3C[C@H](Oc4cncnc4)C[C@H]3C2)nc1 the result was TcHisRS: 1.676%; CoaBC: 2.061%. Cc1ncc(CN(C)C2CCCN(c3cccnn3)C2)s1 (centres unmarked) read TcHisRS: 10.55%; CoaBC: 4.212%. COc1ccc(CNC2CCN(CCc3ccncc3)CC2)cc1O read TcHisRS: -1.604%; CoaBC: -10.56%. With O=C(c1ccc(F)cc1)N1CC[C@H]2[C@H]1CCN2CC1CC1 the screen gave TcHisRS: 7.767%; CoaBC: 2.703%. CCc1[nH]c2ccc(CNC(=O)c3cnc(N)nc3C)cc2c1C gave TcHisRS: 3.191%; CoaBC: 7.582%. NC(=O)C1(CCCc2ccccn2)CCCN(Cc2ncc[nH]2)C1 (centres unmarked) gave TcHisRS: 7.778%; CoaBC: 2.179%. Result for CCc1ccsc1C(=O)N1CCN(CC(C)(C)O)CC1 was TcHisRS: 0%; CoaBC: 0.3817%. Result for CS(=O)(=O)N[C@@H]1CCN(Cc2ccncc2)[C@H]1Cc1cccnc1 was TcHisRS: 3.941%; CoaBC: 2.792%.

Fc1cnc(N2CCCC3(CCN(Cc4cccs4)C3)C2)nc1 (centres unmarked) gave TcHisRS: 14.29%; CoaBC: -16.43%. For CCc1cc(NC2CCS(=O)(=O)C2)nc(N2CCCCC2)n1 (centres unmarked) the result was TcHisRS: 6.667%; CoaBC: -0.2484%. C=C(C)COc1cccc(C(=O)N(C)C(C)c2c(C)n[nH]c2C)c1 (centres unmarked) gave TcHisRS: 6.061%; CoaBC: 2.046%. For O=C(O)[C@]12CCCN(Cc3cccs3)C[C@H]1CN(c1ncccn1)C2 the result was TcHisRS: 0.4975%; CoaBC: 2.258%. With Cc1nonc1C(=O)N1CC[C@@]2(O)CCN(C3CCCCC3)C[C@H]2C1 the screen gave TcHisRS: 4.348%; CoaBC: 10.75%. For CCCn1cc(C(=O)NCc2nnc(-c3ccc(C)nc3)o2)c(C)n1 the result was TcHisRS: 1.538%; CoaBC: 1.188%. With CCc1n[nH]c(C2CN(C(=O)c3cnc(C)cn3)CCO2)n1 (centres unmarked) the screen gave TcHisRS: 1.143%; CoaBC: 5.257%. For Cc1ccsc1CNC1CCCN(Cc2noc(C3CC3)n2)C1 (centres unmarked) the result was TcHisRS: 6.433%; CoaBC: -0.5102%.

O=C(Cc1ccccn1)N1CCN2C[C@H](Oc3cncnc3)C[C@H]2C1 gave TcHisRS: 15.69%; CoaBC: 3.5%. Result for CC(C)CCN1CCN(C(=O)c2cccnc2-n2cncn2)CC1 was TcHisRS: 5.911%; CoaBC: 3.205%. With Cc1cc(C)n(CC2CCCCN2C(=O)c2ccc(C(N)=O)cc2)n1 (centres unmarked) the screen gave TcHisRS: 1.433%; CoaBC: -9.317%. C[C@@H]1CN(C(=O)c2ccc(=O)[nH]c2)CC[C@@]1(O)C1CCOCC1 gave TcHisRS: 2.513%; CoaBC: -3.981%. Result for Cc1cc(CC(C)NC(=O)c2n[nH]c3c2CCC3)n[nH]1 (centres unmarked) was TcHisRS: 5.82%; CoaBC: 4.573%.

Repeated from the top, 3 entries:

| structure | TcHisRS | CoaBC |
|---|---|---|
| `c1cc(COC[C@@]23CCC[C@@H]2CN(C2CCOCC2)C3)ccn1` | 13.97 | 6.424 |
| `CC[C@@]1(O)CCN(C(=O)CN(C)Cc2ccc(F)cc2)C[C@H]1O` | -9.662 | -1.366 |
| `COc1cccc(CCNCc2c(C)nn(C)c2N(C)C)c1` | 4.183 | -2.394 |